Reference: paper PMC11235169 (2024)
Results are given in words; binding and its absence hold for the method and conditions named. Binding seen in cells or lysates may run through a third protein. Some binding calls cover weakened binding; strength is not graded here. For some of these results: Where a sequence is shown, tags or fusion partners need not be part of it.

Amino acid sequences for entries named in this document (tags omitted). A change or cut given only in a name is not applied to a line headed by its entry.
UniProt Q9Z0U4: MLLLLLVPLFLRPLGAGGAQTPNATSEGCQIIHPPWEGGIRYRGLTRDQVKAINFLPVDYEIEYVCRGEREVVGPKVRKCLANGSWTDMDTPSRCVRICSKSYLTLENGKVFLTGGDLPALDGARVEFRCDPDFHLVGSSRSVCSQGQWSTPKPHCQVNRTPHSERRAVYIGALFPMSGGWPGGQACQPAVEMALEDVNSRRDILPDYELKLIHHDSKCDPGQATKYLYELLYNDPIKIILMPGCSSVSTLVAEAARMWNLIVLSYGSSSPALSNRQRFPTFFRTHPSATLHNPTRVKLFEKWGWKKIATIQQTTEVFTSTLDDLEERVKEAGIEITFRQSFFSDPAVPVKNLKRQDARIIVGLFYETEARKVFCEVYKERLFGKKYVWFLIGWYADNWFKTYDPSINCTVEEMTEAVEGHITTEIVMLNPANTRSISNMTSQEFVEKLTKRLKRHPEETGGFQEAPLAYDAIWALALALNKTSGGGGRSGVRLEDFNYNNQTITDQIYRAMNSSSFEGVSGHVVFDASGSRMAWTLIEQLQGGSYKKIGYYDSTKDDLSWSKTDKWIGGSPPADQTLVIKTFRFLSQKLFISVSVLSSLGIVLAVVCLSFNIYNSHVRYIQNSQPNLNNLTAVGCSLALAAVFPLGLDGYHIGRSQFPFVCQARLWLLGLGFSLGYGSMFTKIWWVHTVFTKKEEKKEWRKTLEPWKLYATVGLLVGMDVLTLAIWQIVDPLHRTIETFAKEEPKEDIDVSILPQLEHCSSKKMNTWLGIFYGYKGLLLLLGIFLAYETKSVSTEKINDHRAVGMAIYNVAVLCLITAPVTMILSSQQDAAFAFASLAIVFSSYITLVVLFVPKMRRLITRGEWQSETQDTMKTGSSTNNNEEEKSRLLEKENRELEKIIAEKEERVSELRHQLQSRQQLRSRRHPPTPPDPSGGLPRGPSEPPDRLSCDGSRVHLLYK

T1: AJAP1 (mouse, expressed in HEK293T cells) (mouse) (UniProt A2ALI5)
T1 sequence: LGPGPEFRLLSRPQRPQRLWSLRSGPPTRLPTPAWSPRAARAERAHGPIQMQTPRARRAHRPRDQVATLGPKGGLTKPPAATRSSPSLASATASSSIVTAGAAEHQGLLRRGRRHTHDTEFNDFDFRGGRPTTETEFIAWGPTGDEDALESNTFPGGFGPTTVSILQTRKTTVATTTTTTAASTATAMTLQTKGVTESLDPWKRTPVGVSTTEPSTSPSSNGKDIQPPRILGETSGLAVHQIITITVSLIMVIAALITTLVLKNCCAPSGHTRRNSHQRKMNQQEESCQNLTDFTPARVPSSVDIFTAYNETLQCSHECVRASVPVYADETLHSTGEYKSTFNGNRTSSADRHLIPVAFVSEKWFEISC

T2: AJAP1-Δ273–412 (mouse) (UniProt A2ALI5)
T2 sequence: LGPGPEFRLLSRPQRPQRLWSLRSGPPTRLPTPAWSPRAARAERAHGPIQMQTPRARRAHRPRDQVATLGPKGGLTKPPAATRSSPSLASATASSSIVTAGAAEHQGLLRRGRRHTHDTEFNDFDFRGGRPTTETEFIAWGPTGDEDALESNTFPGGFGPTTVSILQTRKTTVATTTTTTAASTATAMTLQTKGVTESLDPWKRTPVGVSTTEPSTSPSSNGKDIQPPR


Key:
[1] = biological target: GC-GB1a expressed along with GB2 (GB1a/2 receptor) (UniProt Q9Z0U4); test: split reporter; trans-cellular fluorescence complementation of split superfolder GFP (GFP1–10 and GFP11) between two separately transfected pools of HEK293T cells, mixed and cocultured for 24 hours; GFP fluorescence at cell interfaces
[2] = biological target: T1, AJAP1 (mouse, expressed in HEK293T cells) (mouse); test: co-IP; transfected HEK293T cells expressing gephyrin with AJAP1 or AJAP1-Δ273–412; immunoprecipitation with sheep anti-AJAP1 antibody, gephyrin detected by immunoblot
[3] = biological target: T2, AJAP1-Δ273–412 (mouse); test: as above

| binding [1] | binding [2] | binding [3] | Binder |
| --- | --- | --- | --- |
| binds | – | – | GN-AJAP1-mCherry (protein, UniProt A2ALI5 44-412) LGPGPEFRLLSRPQRPQRLWSLRSGPPTRLPTPAWSPRAARAERAHGPIQMQTPRARRAHRPRDQVATLGPKGGLTKPPAATRSSPSLASATASSSIVTAGAAEHQGLLRRGRRHTHDTEFNDFDFRGGRPTTETEFIAWGPTGDEDALESNTFPGGFGPTTVSILQTRKTTVATTTTTTAASTATAMTLQTKGVTESLDPWKRTPVGVSTTEPSTSPSSNGKDIQPPRILGETSGLAVHQIITITVSLIMVIAALITTLVLKNCCAPSGHTRRNSHQRKMNQQEESCQNLTDFTPARVPSSVDIFTAYNETLQCSHECVRASVPVYADETLHSTGEYKSTFNGNRTSSADRHLIPVAFVSEKWFEISC |
| no binding | – | – | GN-AJAP1-SDBM-mCherry (protein, UniProt A2ALI5 44-412) LGPGPEFRLLSRPQRPQRLWSLRSGPPTRLPTPAWSPRAARAERAHGPIQMQTPRARRAHRPRDQVATLGPKGGLTKPPAATRSSPSLASATASSSIVTAGAAEHQGLLRRGRRHTHDTEFNDFDFRGGRPTTETEFAAAAAAGDEDALESNTFPGGFGPTTVSILQTRKTTVATTTTTTAASTATAMTLQTKGVTESLDPWKRTPVGVSTTEPSTSPSSNGKDIQPPRILGETSGLAVHQIITITVSLIMVIAALITTLVLKNCCAPSGHTRRNSHQRKMNQQEESCQNLTDFTPARVPSSVDIFTAYNETLQCSHECVRASVPVYADETLHSTGEYKSTFNGNRTSSADRHLIPVAFVSEKWFEISC |
| – | binds | no binding | mCherry-tagged full-length gephyrin (protein, UniProt Q03555 1-768) MATEGMILTNHDHQIRVGVLTVSDSCFRNLAEDRSGINLKDLVQDPSLLGGTISAYKIVPDEIEEIKETLIDWCDEKELNLILTTGGTGFAPRDVTPEKFPTFPFCGLQKGATKEVIEREAPGMALAMLMGSLNVTPLGMLSRPVCGIRGKTLIINLPGSKKGSQECFQFILPALPHAIDLLRDAIVKVKEVHDELEDLPSPPPPLSPPPTTSPHKQTEDKGVQCEEEEEEKKDSGVASTEDSSSSHITAAALAAKIPDSIISRGVQVLPRDTASLSTTPSESPRAQATSRLSTASCPTPKQIRRPDESKGVASRVGSLKVQSRCSSKENILRASHSAVDITKVARRHRMSPFPLTSMDKAFITVLEMTPVLGTEIINYRDGMGRVLAQDVYAKDNLPPFPASVKDGYAVRAADGPGDRFIIGESQAGEQPTQTVMPGQVMRVTTGAPIPCGADAVVQVEDTELIRESDDGTEELEVRILVQARPGQDIRPIGHDIKRGECVLAKGTHMGPSEIGLLATVGVTEVEVNKFPVVAVMSTGNELLNPEDDLLPGKIRDSNRSTLLATIQEHGYPTINLGIVGDNPDDLLNALNEGISRADVIITSGGVSMGEKDYLKQVLDIDLHAQIHFGRVFMKPGLPTTFATLDIDGVRKIIFALPGNPVSAVVTCNLFVVPALRKMQGILDPRPTIIKARLSCDVKLDPRPEYHRCILTWHHQEPLPWAQSTGNQMSSRLMSMRSANGLLMLPPKTEQYVELHKGEVVDVMVIGRL |
